Experimental data published in the supplement of paper PMC6078165.
± gives the standard deviation of the averaged measurements. Values are relative to the signal before dosing, not to a vehicle control; the signal also falls without drug.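 Labels refer to human fibroblasts, largely primary: uterine (C12385, HUF), lung (H6013), bone (Hs27A), adrenal (HADF), skin (WS1), plus mammary HMF and breast cancer-associated Hs343T. Cancer lines are basal-like or mesenchymal-like triple-negative breast cancer. The paper counts as hits responses shifting over 3x the replicate standard deviation. The tissue of the other fibroblasts is not given here.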

System: MDAMB231
Assay: relative JC-1 red fluorescence (viability) vs pre-drug, coculture with fibroblast (fraction); higher = more viable cancer cells
Details: 10 µM
Protocol: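 JC-1 labelled TNBC cells cocultured 1:1 (1,500 cells each) with CellTrace Violet stained primary or stromal fibroblasts in 384-well plates in FluoroBrite medium, treated with one of 42 anticancer drugs at 0.1, 1, 10 or 100 uM. JC-1 red fluorescence (mitochondrial integrity in cancer cells only) was read by plate reader every 8 h for 72 h. Values are normalised to each well's pre-drug value. The stock of one drug was tenfold lower, so its dose labels may be too high.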

O=NN(CCCl)C(=O)NCCCl [Carmustine]
relative JC-1 red fluorescence
Details | 8 h | 16 h | 24 h | 32 h | 40 h
coculture fibroblast: C12385 | 0.761 ± 0.0084 | 0.734 ± 0.018 | 0.605 ± 0.039 | 0.59 ± 0.014 | 0.515 ± 0.026
coculture fibroblast: H6013 | 0.893 ± 0.019 | 0.835 ± 0.0097 | 0.7831 ± 0.0038 | 0.764 ± 0.0026 | 0.7251 ± 0.0043
coculture fibroblast: H6019 | 0.8302 ± 0.0044 | 0.768 ± 0.017 | 0.671 ± 0.028 | 0.658 ± 0.025 | 0.592 ± 0.033
coculture fibroblast: H6076 | 0.876 ± 0.024 | 0.784 ± 0.02 | 0.707 ± 0.015 | 0.689 ± 0.014 | 0.648 ± 0.01
coculture fibroblast: H6231 | 0.938 ± 0.012 | 0.853 ± 0.016 | 0.7785 ± 0.0032 | 0.732 ± 0.014 | 0.669 ± 0.025
coculture fibroblast: HADF | 0.914 ± 0.017 | 0.875 ± 0.023 | 0.841 ± 0.045 | 0.825 ± 0.061 | 0.786 ± 0.063
coculture fibroblast: HCFa | 0.9074 ± 0.0061 | 0.8434 ± 0.0069 | 0.8062 ± 0.0059 | 0.756 ± 0.0096 | 0.695 ± 0.013
coculture fibroblast: HCPF | 0.9318 ± 0.0067 | 0.846 ± 0.008 | 0.7511 ± 0.0017 | 0.738 ± 0.0076 | 0.673 ± 0.0095
coculture fibroblast: HHSteC | 0.9121 ± 0.0067 | 0.8595 ± 0.0046 | 0.8095 ± 0.0061 | 0.7667 ± 0.0054 | –
coculture fibroblast: HMF | 0.8892 ± 0.0046 | 0.8017 ± 0.0047 | 0.7178 ± 0.0023 | 0.676 ± 0.0099 | –
coculture fibroblast: HPFa | 0.928 ± 0.021 | 0.878 ± 0.035 | 0.798 ± 0.035 | 0.727 ± 0.043 | –
coculture fibroblast: HUF | 0.863 ± 0.016 | 0.75 ± 0.058 | 0.712 ± 0.03 | 0.594 ± 0.036 | –
coculture fibroblast: Hs5 | 0.891 ± 0.038 | 0.806 ± 0.041 | 0.718 ± 0.056 | 0.665 ± 0.046 | –
coculture fibroblast: Hs27A | 0.91 ± 0.0093 | 0.877 ± 0.013 | 0.848 ± 0.027 | 0.837 ± 0.051 | –
coculture fibroblast: Hs343T | 0.892 ± 0.012 | 0.779 ± 0.018 | 0.685 ± 0.028 | 0.654 ± 0.044 | –
coculture fibroblast: WS1 | 0.7638 ± 0.0012 | 0.6926 ± 0.003 | 0.635 ± 0.012 | 0.577 ± 0.012 | –
